# From PubChem BioAssay AID493014 (National Center for Advancing Translational Sciences (NCATS), 2011)
# This is one part of the list. Further columns of the screen follow, without active or inactive calls. The list favours compounds with an active or inconclusive main result. Potencies come from curve fits of mixed quality, noted in brackets.
# Experiment: qHTS Assay to Find Inhibitors of Chronic Active B-Cell Receptor Signaling
# Details: ABC-DLBCL IkBa-CBG/CBR reporter, luminescence ratio (green luciferase fused to IkBa over red control in TMD8 lymphoma cells), 4 h
# Summary of the method: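 TMD8 human ABC-DLBCL cells with doxycycline-inducible IκBα–green luciferase fusion and unfused red luciferase, in 0.5% FBS medium; compounds up to 46 uM, 4 h at 37C. Green/red luminescence ratio, filter-overlap corrected, fitted to concentration-response curves.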
# [1] = measured here: CBR red luminescence, cell number
SMILES,AC50 [1],AC50 (measured here: IkBa-CBG green luminescence)
COc1cc(/C=C2/CCc3ccccc3C2=O)cc(OC)c1OC,"29.1 µM [falling, single point]",–
CCC(=O)Nc1cccc(-c2ccc(N3CCCCC3)nn2)c1,"12.6 µM [falling, single point]",–
COc1ccc(N(CC(=O)N2CCc3ccccc32)S(=O)(=O)c2c(C)nn(C)c2C)cc1,"3.26 µM [falling, partial curve, poor fit]",–
Cc1ccc2c(c1)nc(NCCCO)n2C,"32.6 µM [rising, single point]",–
O=C(Nc1ccc(Cl)cc1)N(Cc1cccs1)Cc1cccs1,"2.31 µM [rising, partial curve, poor fit]",–
Cc1ccccc1C(=O)Nn1c(C)ccc1C,"12.6 µM [falling, partial curve, poor fit]",–
c1ccc(CN2CCC(Nc3nc(-c4cccnc4)nc4ccccc34)CC2)cc1,"25.1 µM [falling, single point]",–
O=C(NCc1ccccn1)c1cn(Cc2ccccc2)nn1,"17.8 µM [rising, partial curve, poor fit]",–
Cn1nnc2c(NCc3c(F)cccc3F)ncnc21,"6.31 µM [falling, full curve, poor fit]",–
CN1CCN(C(c2ccc(F)cc2)c2nnnn2Cc2cccs2)CC1 (configuration not stated),"32.6 µM [falling, single point]",–
O=C1/C(=C/c2ccc(F)cc2)CCC1C1CCCC1 (configuration not stated),"2.06 µM [rising, partial curve]",–
C#CC(=O)N(c1ccc(OC)cc1OC)C(C(=O)NC1CCCC1)c1cccs1 (configuration not stated),"35.5 µM [falling, single point]",–
O=C(Nc1ccc(-c2csc(Nc3ccc(Cl)cc3)n2)cc1)c1cccc(C(F)(F)F)c1,"35.5 µM [rising, single point]",–
Cc1ccccc1/C=C/C(=O)c1ccc([N+](=O)[O-])o1,"3.66 µM [falling, partial curve, poor fit]",–
O=C(O)C1CC(=O)N(C2CCCCC2)C1c1ccccc1 (configuration not stated),"0.92 µM [falling, full curve, poor fit]",–
Cc1cccc(/C=N/NC(=O)CNc2cccc3ccccc23)n1,"13 µM [falling, partial curve]",–
Cc1cc(Cl)c2oc(C(=O)N(C)C3CCOC3)c(C)c2c1 (configuration not stated),"12.6 µM [rising, partial curve]",–
COc1ccc(NC(=O)COC(=O)CCCN2C(=O)c3ccccc3C2=O)cc1Cl,"32.6 µM [rising, single point]",–
C/C(=N\NC(=O)c1cccnc1)c1cc2ccccc2o1,"11.2 µM [falling, partial curve, poor fit]",–
CCn1c2ccccc2c2cc(NC(=O)COC(=O)c3cccc(S(=O)(=O)NC)c3)ccc21,"23.1 µM [rising, partial curve, poor fit]",–
CC(=O)Nc1ccc(S(=O)(=O)NC(CC(=O)NC2CCCCC2C)C(C)C)cc1 (configuration not stated),"23.1 µM [rising, single point]",–

# Shown as tab-separated lines: 2 of the compounds above
SMILES	AC50 [1]	AC50 (measured here: IkBa-CBG green luminescence)
CN1CCN(C(c2ccc(F)cc2)c2nnnn2Cc2cccs2)CC1 (configuration not stated)	32.6 µM [falling, single point]	–
O=C1/C(=C/c2ccc(F)cc2)CCC1C1CCCC1 (configuration not stated)	2.06 µM [rising, partial curve]	–

# Carrying on:

SMILES,AC50 [1],AC50 (measured here: IkBa-CBG green luminescence)
O=C(Nc1ccncc1)c1c(Cl)cccc1Cl,"25.1 µM [falling, single point]",–
CCOC(=O)C(CC)Sc1nc2c(c(=O)[nH]c(=O)n2C)n1C/C=C(/C)Cl (configuration not stated),"4.11 µM [rising, single point]","4.61 µM [rising, partial curve, poor fit]"
COc1cccc(/C=N/NC(=O)c2ccc(-n3cnnn3)cc2)c1,"16.4 µM [falling, single point]",–
O=c1ccc2cc(S(=O)(=O)N3CCN(c4ccc(Cl)cc4)CC3)ccc2o1,"6.31 µM [rising, single point]",–
N#CC1=C(N)SC(N)=C(C#N)C1C1C=CCCC1 (configuration not stated),"29.1 µM [falling, partial curve, poor fit]",–
CC(=O)c1ccc(NS(=O)(=O)c2cccc(C)c2)cc1,"0.651 µM [falling, partial curve, poor fit]",–
Cc1occc1C(=O)N1CCCC(Nc2ccc(C(C)C)cc2)C1 (configuration not stated),"5.62 µM [rising, partial curve, poor fit]",–
CN1C(=S)N(c2cccnc2)C(=O)/C1=C\c1ccc(N(C)C)cc1,"7.94 µM [rising, partial curve, poor fit]",–
Cc1oc(-c2ccc(C(F)(F)F)cc2)nc1CN(Cc1ccccn1)C[C@@H]1CCC(=O)N1,"20 µM [falling, partial curve, poor fit]",–
Cc1occc1C(=O)N/N=C/c1ccc(N(C)C)cc1,"0.398 µM [falling, full curve]",–
COc1cc(OC)c(C(=O)Nc2cccc3ccccc23)cc1OC,"8.91 µM [rising, partial curve, poor fit]",–
Cc1ccc(N(CC(=O)NC2CCCC2)C(=O)CNC(=O)c2cccs2)cc1C,"2.24 µM [rising, partial curve, poor fit]",–
O=C(Nc1ccc(F)cc1)c1nsc(Cl)c1Cl,"25.9 µM [falling, single point]",–
COc1ccc(-c2nn(-c3ccccc3)cc2C(=O)Nc2cccc(C(=O)O)c2)cc1[N+](=O)[O-],"7.94 µM [rising, partial curve]",–
COc1ccc(Nc2nc3ccccc3n3cnnc23)cc1,"0.651 µM [rising, full curve]",–
Cc1ccc[n+](-c2nc3ccccc3nc2[N-]S(=O)(=O)c2ccccc2)c1,"0.631 µM [rising, full curve, poor fit]",–
CS(=O)(=O)c1[nH]nc(-c2cccc(Cl)c2)c1C#N,"3.55 µM [rising, partial curve, poor fit]",–
CCn1c(SCc2cc(=O)n3ccsc3n2)nc2ccccc21,"7.08 µM [falling, partial curve]",–
O=C(Nc1ccc(Cl)cc1)Nc1ccc(Br)cn1,"0.447 µM [rising, full curve, poor fit]",–
CC(C)(C)c1cc(NC(=O)CCl)n(-c2ccccc2)n1,"11.2 µM [falling, partial curve, poor fit]",–
